Results reported in publication PMC6943742 (Molecules, 2019).
HELM strings list residues between dots; [ac] is acetyl, [am] amide, other brackets name non-standard units.

Assay: Fmoc solid-phase peptide synthesis; H-Rink-Amide ChemMatrix resin (loading 0.52 mmol/g); DIC/OxymaPure
Details: whole synthesis, 220 nm, scale 0.05 mmol

Going from “PEPTIDE1{[Dab].[NPhe].[Dab].[NPhe].[Dab].[NPhe].[Dab].[NPhe].[Dab].[NPhe].[Dab].[NPhe].[am]}$$$$V2.0” to “PEPTIDE1{[Dab].[NhPhe].[Dab].[NhPhe].[Dab].[NhPhe].[Dab].[NhPhe].[Dab].[NhPhe].[Dab].[NhPhe].[am]}$$$$V2.0”, the “final HPLC purity” value rises from 95.2% to 98.98%.

With “PEPTIDE1{[Orn].[NPhe].[Orn].[NPhe].[Orn].[NPhe].[Orn].[NPhe].[Orn].[NPhe].[Orn].[NPhe].[am]}$$$$V2.0” the “final HPLC purity” value was 86.54%.
